Measurements: patent publication US4460503A (priority 1983, dated 1984)

Assay: general procedure: solution-phase peptide synthesis; dicyclohexylcarbodiimide / N-hydroxysuccinimide; succinimidyl esters

**Q.** With “H-Ser(Bu^t)-Glu(OBu^t)-Ser(Bu^t)-Glu(OBu^t)-Gly-OH hydrochloride” as the substance, how does the step yield (late stage modification step, hydrochloride) read?
**A.** The step yield was 96%.

**Q.** For DGGSESEGKNGSQMRL, which difficulty met (late stage modification step) is on record?
**A.** The difficulty met was “showed this preparation to be a complex mixture of products”.

**Q.** What about the step yield (late stage modification step) of the same substance?
**A.** The step yield was 6.5%.

**Q.** For “Z-Glu(OBu^t)-Ser(Bu^t)-Glu(OBu^t)-Gly-OMe”, which step yield (coupling step) is on record?
**A.** Its step yield is 92%.

**Q.** With “Z-Ser(Bu^t)-Glu(OBu^t)-Ser(Bu^t)-Glu(OBu^t)-Gly-OMe” as the substance, how does the step yield (coupling step) read?
**A.** Its step yield is 92%.

**Q.** For “Z-Ser(Bu^t)-Glu(OBu^t)-Ser(Bu^t)-Glu(OBu^t)-Gly-OH”, which step yield (late stage modification step) is on record?
**A.** Its step yield is 85%.

**Q.** With “BOC-Lys(Z)-Asn-Gly-Ser-Gln-Met-Arg(Tos)-Leu)OBzl” as the substance, how does the step yield (coupling step) read?
**A.** Its step yield is 75%.

**Q.** For PEPTIDE1{D.G.G.S.E.S.E.G}$$$$V2.0, which step yield (late stage modification step) is on record?
**A.** Its step yield is 63%.

**Q.** And the step yield (late stage modification step, trifluoroacetate)?
**A.** The step yield was 99%.

**Q.** Which step yield (coupling step) does the source give for “Boc-D(OtBu)GGS(tBu)E(OtBu)S(tBu)E(OtBu)G-OH” here?
**A.** The step yield was 82%.

Strings that start with PEPTIDE1 are HELM notation: dots part the residues, brackets hold end groups and non-standard residues. Where no end group is shown, it is not given here. The star is where a group is joined. Boc = CC(C)(C)OC(=O)*; OtBu = CC(C)(C)O*; tBu = CC(C)(C)*
